No constants are given. Whether binding was seen depends on the method and setting. In cells and extracts the contact can be indirect. A yes stands for co-enrichment or nearness to the bait. Other partners may have been found. Tags and fused reporters may be left off the sequences shown.
Target: T1, FLAG-tagged Tspan7 (Tetraspanin-7) (human) (UniProt P41732)
T1 sequence: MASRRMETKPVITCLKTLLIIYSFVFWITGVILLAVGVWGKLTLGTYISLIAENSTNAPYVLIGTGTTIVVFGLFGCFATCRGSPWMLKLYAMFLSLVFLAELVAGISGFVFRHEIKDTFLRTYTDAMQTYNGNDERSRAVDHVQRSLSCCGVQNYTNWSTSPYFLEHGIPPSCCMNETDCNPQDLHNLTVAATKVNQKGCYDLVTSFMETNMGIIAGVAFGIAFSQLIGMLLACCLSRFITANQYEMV
Experiment: affinity purification with mass spectrometry; Anti-Flag M2 agarose beads on lysates of U2OS cells expressing FLAG-tagged Tspan7 or control constructs; proteins interacting with Tspan7 identified by mass spectrometry

Amino acid sequences for entries named in this document (tags omitted). A change or cut given only in a name is not applied to a line headed by its entry.
UniProt P05556: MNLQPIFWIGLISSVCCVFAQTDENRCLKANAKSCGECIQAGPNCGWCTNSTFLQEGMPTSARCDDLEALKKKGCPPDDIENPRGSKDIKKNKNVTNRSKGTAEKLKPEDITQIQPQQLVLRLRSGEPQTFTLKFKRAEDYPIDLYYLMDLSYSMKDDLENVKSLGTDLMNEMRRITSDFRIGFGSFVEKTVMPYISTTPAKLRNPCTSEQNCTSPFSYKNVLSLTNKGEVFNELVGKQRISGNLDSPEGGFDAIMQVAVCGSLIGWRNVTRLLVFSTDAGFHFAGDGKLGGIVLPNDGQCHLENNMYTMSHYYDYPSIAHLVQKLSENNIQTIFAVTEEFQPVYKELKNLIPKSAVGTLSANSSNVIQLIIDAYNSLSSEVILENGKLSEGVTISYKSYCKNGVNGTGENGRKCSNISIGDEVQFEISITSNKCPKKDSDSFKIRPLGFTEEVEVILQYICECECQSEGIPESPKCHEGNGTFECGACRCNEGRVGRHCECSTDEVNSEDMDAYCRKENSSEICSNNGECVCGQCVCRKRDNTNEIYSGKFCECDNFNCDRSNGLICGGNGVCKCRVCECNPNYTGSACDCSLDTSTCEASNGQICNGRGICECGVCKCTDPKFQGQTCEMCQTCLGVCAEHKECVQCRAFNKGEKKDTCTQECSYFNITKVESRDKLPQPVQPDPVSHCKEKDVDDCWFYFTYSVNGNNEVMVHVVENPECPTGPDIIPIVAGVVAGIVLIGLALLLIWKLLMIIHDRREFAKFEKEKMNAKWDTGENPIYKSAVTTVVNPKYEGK

binding: binds
Substance: integrin β1 (from UniProt P05556 21-798) (receptor)

Reference: publication PMC9074275
